Results: PubChem BioAssay AID624297 (National Center for Advancing Translational Sciences (NCATS), 2012)
Screen size: about 340,000 compounds; about 6,200 (1.8%) were called active. The inconclusive results got no clear call from the source; some entries with a clear call stand among them for comparison. Calls follow the shape of the dose curve; as a rule, active = well fitted activation curve with a large enough effect; inconclusive = small, poorly fitted or top-dose-only effect; inactive = no such curve, though single readings can be large or run the other way. A potency beside an inconclusive call is a rough fit, not a confirmed value.

Test: A quantitative high throughput screen for small molecules that induce DNA re-replication in SW480 colon adenocarcinoma cells. Also: nearly all actives have a fitted effect of over 55% in size. As to re-replication activation: % of control where 0% means no effect.
Conditions: Hoechst DNA content imaging, 48 h; re-replication activation: at 46.1 µM (top of the series) unless noted
How it was run: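 Readout is total intensity of Hoechst-stained nuclei, excited at 405 nm and collected at 500-530 nm. Compound treatment lasted 48 hr at 37 C in 5% CO2 before staining.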
Potency is read from the fitted curve at half-maximal effect.

| Compound | Potency | re-replication activation |
| --- | --- | --- |
| Cc1ccc2nc(N3C(=O)C(O)=C(C(=O)c4ccco4)C3c3ccc(C)o3)sc2c1 (centres undefined) | inconclusive: 20.6 µM [activator, single point] | – |
| COc1ccc(N2CCN(C(=O)c3oc4ccccc4c3NC(=O)Cc3ccc(OC)c(OC)c3)CC2)cc1 | inactive | – |
| Cc1cc(=O)oc2cc(OCC(O)CN3CCc4ccccc4C3)ccc12 (centres undefined) | inconclusive: 0.82 µM [activator, partial curve, poor fit] | – |
| OCCC1CN(Cc2ccc3cc(Cl)ccc3n2)CCN1Cc1ccsc1 (centres undefined) | inconclusive: 11.2 µM [activator, partial curve, poor fit] | – |
| O=C(O)C(=O)/C(=C\c1cccc2ccccc12)c1ccc2ccccc2n1 | inconclusive: 29.1 µM [activator, single point] | – |
| COc1ccccc1/C=C/C(=O)N1CCN(S(=O)(=O)c2cccs2)CC1 | inactive | – |
| Cc1ccc(OCC(=O)N2CCN(c3nnc(-c4ccccc4)c4ccccc34)CC2)cc1 | inconclusive: 29.1 µM [activator, single point] | – |
| CCCCn1c(N)c(N(CC)C(=O)c2cccc(S(=O)(=O)N3CCN(C)CC3)c2)c(=O)[nH]c1=O | inactive | – |
| Cc1ccc(CN2CC(C(=O)Nc3ccc(S(=O)(=O)N4CCCCC4)cc3)CC2=O)cc1 (centres undefined) | inconclusive: 29.1 µM [activator, partial curve, poor fit] | – |
| CC(C)c1onc(C(=O)N2CCN(C(c3ccccc3)c3ccccc3)CC2)c1[N+](=O)[O-] | inconclusive: 7.31 µM [activator, partial curve] | – |
| O=S(=O)(Nc1ccc(Cl)cc1NS(=O)(=O)c1ccccc1)c1ccccc1 | inconclusive: 20.6 µM [activator, single point] | – |
| O=C1CC(c2cccs2)c2cc3c(cc2N1)OCCO3 (centres undefined) | inactive | – |
| COP(=O)(OC)c1ccc(NCc2cc(O)ccc2O)cc1 | inconclusive: 20.6 µM [activator, single point] | – |
| c1ccc(CSc2nnc(-c3cccs3)o2)cc1 | inconclusive: 18.4 µM [activator, single point] | – |
| O=C(Nc1nnc(-c2ccco2)o1)C1CCCCC1 | inactive | – |
| O=C(NC(=S)Nc1cc(C(F)(F)F)ccc1Cl)c1ccccc1 | inconclusive: 13 µM [activator, partial curve, poor fit] | – |
| COc1cc(/C=C/C(=O)c2ccc(Cl)s2)cc(OC)c1O | inconclusive: 18.4 µM [activator, single point] | – |
| C(=N\Nc1nc2ccccc2[nH]1)/c1ccccn1 | inconclusive: 29.1 µM [activator, single point] | – |
| CCN(CC)S(=O)(=O)c1ccc(C(=O)Nc2nnc(NC(=S)Nc3ccccc3)s2)cc1 | inconclusive: 20.6 µM [activator, single point] | – |
| CN(CC1CCCO1)S(=O)(=O)c1ccc(C(=O)Nc2nnc(-c3ccccc3)o2)cc1 (centres undefined) | inconclusive: 29.1 µM [activator, single point] | – |
| C=CC[C@@H](CC(=O)N(CCO)Cc1ccccc1)C(=O)N[C@H](COC(=O)[C@@H](CC=C)Cc1ccc(F)cc1)c1ccccc1 | inconclusive: 20.6 µM [activator, single point] | – |
| O=C(NC(=S)NNC(=O)c1ccccc1O)c1cccs1 | inconclusive: 8.2 µM [activator, partial curve, poor fit] | – |
| COc1ccc(NC(=O)c2cccs2)cc1C(=O)N1CCN(c2ccccc2)CC1 | inconclusive: 29.1 µM [activator, single point] | – |

| Compound | Potency | re-replication activation |
| --- | --- | --- |
| CN(C)c1ccc(C#Cc2ccc3cc(CCCO)oc(=O)c3c2)cc1 | inactive | – |
| CC(C)CNC(=O)COc1ccc(Sc2ccc(OCC(=O)NCC(C)C)cc2)cc1 | inconclusive: 18.4 µM [activator, single point] | – |
| CC(=O)Nc1ccc(Cl)cc1-c1ccccc1 | inconclusive: 29.1 µM [activator, partial curve, poor fit] | – |
| CC(C)(C)NC(=O)C(c1cccs1)N(CC1CCCO1)C(=O)c1ccc(-c2ccccc2)[nH]1 (centres undefined) | inconclusive: 0.146 µM [activator, full curve, poor fit] | – |
| CC1C(=O)OC(c2ccc(Cl)cc2)C(C)(C)C1=O (centres undefined) | inactive | – |
| Cc1cccc(OC(C)C(=O)Nc2ccc3c(c2)OCCO3)c1 (centres undefined) | inactive | – |
| Cc1nnc(SCC(=O)Nc2cc(-c3cc(C)c(C)cc3C)nn2-c2ccccc2)s1 | inconclusive: 29.1 µM [activator, single point] | – |
| CCOC(=O)C1CCN(C(=O)c2cc3c(=O)n4ccccc4nc3s2)CC1 | inactive | – |
| Cc1ccc(S(=O)(=O)NCC(=O)OCCOc2ccccc2F)cc1 | inactive | – |
| Cc1ccc(C(=O)NCCc2nnc3ccc(SCC(=O)NCc4ccc(F)cc4)nn23)cc1 | inconclusive: 0.164 µM [activator, full curve, poor fit] | – |
| COc1ccc(C(=O)N/N=C/C(Br)=C/c2ccccc2)cc1 | inconclusive: 18.4 µM [activator, single point] | – |
| Cc1ccc([N+](=O)[O-])cc1N=C1C(=O)Nc2ccccc21 | inactive | – |
| O=C(COC(=O)c1cc(-c2ccccn2)nc2ccccc12)Nc1ncc(C(F)(F)F)cc1Cl | inactive | – |
| O=C(Nc1ccc(S(=O)(=O)NCC2CCCO2)cc1)c1cccc(F)c1 (centres undefined) | inconclusive: 1.3 µM [activator, single point] | – |
| CC(C)COP(=O)(OCC(C)C)C(Nc1ccccc1)c1ccc(F)cc1 (centres undefined) | inconclusive: 32.6 µM [activator, partial curve, poor fit] | – |
| CCC(CC)c1nnc(NC(=O)c2cccc(S(=O)(=O)N3CCc4ccccc43)c2)s1 | inconclusive: 29.1 µM [activator, single point] | – |
| O=C1NC(=O)C2(CCc3ccccc32)N1 (centres undefined) | inactive | – |
| O=C(Nc1ccc(Cl)cc1)N1CCc2ccccc2C1 | inactive | – |
| Cc1cccc(NC(=S)NC(NC(=O)OCc2ccccc2)C(Cl)(Cl)Cl)c1 (centres undefined) | inconclusive: 20.6 µM [activator, single point] | – |
| CN1CCN(c2nc(-c3ccccc3O)nc3ccccc23)CC1 | inconclusive: 29.1 µM [activator, single point] | – |
| COc1ccc(CNc2ncc(-c3ccc(Cl)cc3)n2C)c(OC)c1OC | inconclusive: 0.326 µM [activator, full curve, poor fit] | – |
| CCCc1cc(=O)[nH]c(SCC(=O)Nc2ccc(N3CCCCC3)cc2)n1 | inactive | – |
| O=C(OCC(=O)N(C1CCCCC1)C1CCCCC1)c1ccccc1O | inconclusive: 29.1 µM [activator, single point] | – |

| Compound | Potency | re-replication activation |
| --- | --- | --- |
| O=C(NCCOc1ccccc1F)c1cccc(S(=O)(=O)N2CCN(c3ccccc3)CC2)c1 | inconclusive: 9.2 µM [activator, partial curve, poor fit] | – |
| CC(C)(C)c1ccc(-n2ncc3c2CCCC3NC(=O)CCN2CCCC2=O)cc1 (centres undefined) | inactive | – |
| Fc1cccc(Cl)c1Cn1nnc2c(NCc3ccccn3)ncnc21 | inactive | – |
| CC(C)(C)C(=O)COC(=O)c1cccc(NC(=O)c2ccco2)c1 | inconclusive: 29.1 µM [activator, single point] | – |
| O=C(CSc1nnc(-c2cnccn2)n1Cc1ccco1)c1ccc(Cl)cc1 | inconclusive: 23.1 µM [activator, single point] | – |
| C[C@@]12C(=O)Nc3ccccc3C(=O)N1[C@H]1c3cc(Br)ccc3OC[C@@H]1[C@@H]2c1ccccc1 | inconclusive: 18.4 µM [activator, single point] | – |
| CC(=O)c1cccc(Nc2nc(N3CCOCC3)nc(N3CCOCC3)n2)c1 | inactive | – |
| CCC[C@H]1CC(=O)C=C(c2ccc(OC)cc2)ON1C(=O)OC(C)(C)C | inconclusive: 23.1 µM [activator, single point] | – |
| Cc1cccc(C(=O)NNC2=C(C(=O)C(F)(F)F)CCC2)c1O | inconclusive: 18.4 µM [activator, single point] | – |
| CCOc1c2ccc(C(=O)NCc3ccc(C(F)(F)F)cc3C(F)(F)F)cc2nn1C | inactive | – |
| O=C(CN1C(=O)C(=O)c2ccccc21)c1ccccc1 | – | inconclusive: 86.2% [activator] |
| CCOCCCNC(=S)N1CCCN(c2nc3cc(C)cc(C)c3cc2C#N)CC1 | inconclusive: 20.6 µM [activator, single point] | – |
| COc1cc(/C=C/c2cc(C(F)(F)F)[nH]c(=O)n2)cc(OC)c1OC | active: 20.6 µM | – |
| CCCCCn1c(CN2CCN(c3cccc(Cl)c3)CC2)nc2c1c(=O)[nH]c(=O)n2C | inconclusive: 29.1 µM [activator, single point] | – |
| COc1ccc(NC(=O)/C(C#N)=C/c2ccc(-c3ccccc3C(=O)O)o2)cc1 | inactive | – |
| COc1ccccc1C(=O)Nc1ccc(-c2nnn(CC(=O)N3CCOCC3)n2)cc1 | inconclusive: 4.11 µM [activator, partial curve, poor fit] | – |
| O=C(/C=C/c1ccc(OCCCF)cc1)Nc1ccnc(-c2cccnc2)n1 | inconclusive: 6.51 µM [activator, single point] | – |
| S=c1[nH]nc(CSCCOc2ccc(Cl)cc2Cl)o1 | inactive | – |
| CCN(CC)C(=O)C(C(=O)c1cccc([N+](=O)[O-])c1)n1cc(Cl)ccc1=O (centres undefined) | inactive | – |
| O=C(N/N=C/c1ccccn1)c1ccc(Cl)cc1 | active: 4.11 µM | – |
| C=CCn1c(CNC(=O)c2cccs2)nnc1SCC(=O)Nc1ccc(C(=O)O)cc1 | inactive | – |
| O=C(NC1CCCC1)C(c1ccccn1)N(C(=O)c1csnn1)c1ccccc1F (centres undefined) | inactive | – |
| COc1cccc(-n2cc(CN(C)Cc3nc(Cc4ccccc4)no3)cn2)c1 | inconclusive: 0.0731 µM [activator, full curve] | – |

3 successive compounds from above, quoted:

| Compound | Potency | re-replication activation |
| --- | --- | --- |
| CCOc1c2ccc(C(=O)NCc3ccc(C(F)(F)F)cc3C(F)(F)F)cc2nn1C | inactive | – |
| O=C(CN1C(=O)C(=O)c2ccccc21)c1ccccc1 | – | inconclusive: 86.2% [activator] |
| CCOCCCNC(=S)N1CCCN(c2nc3cc(C)cc(C)c3cc2C#N)CC1 | inconclusive: 20.6 µM [activator, single point] | – |
